Measured data: PubChem BioAssay AID1224830 (NIAID, 2016)
The deposit covers about 18,000 reagents; shown is a part drawn at random. Of all reagents, about 2,900 (16%) got an active call. 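Calls are made per well; low scores hint the gene aids the LPS response, high scores that it dampens it.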 Repeated entries: four replicate wells of each siRNA pool.

- Aim: 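Regulators of TLR4 signalling towards TNF-alpha in macrophage-like cells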 (primary screen)
- Cell system: human THP-1 monocytic leukaemia cells, TNF dual-luciferase reporter clone, PMA-differentiated to macrophage-like cells
- Knock-down reagent: siRNA pool against human genes, 50 nM
- Time to read-out: LPS for 4 h, given about 3 days after siRNA transfection
- Treatment: bacterial LPS (TLR4 ligand), 10 ng/ml
- Read-out: 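TNF firefly reporter luminescence divided by renilla, normalised to the plate median, then turned into a robust z-score for each replicate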
- Scale: TNF reporter robust z-score: higher = stronger TNF reporter response to LPS
- Call rule: 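Each well counts as active if its z-score is over 2.8 or under -1.5; controls are left without a call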

| gene | PubChem SID | TNF reporter robust z-score | call |
| --- | --- | --- | --- |
| OR2W3 | SID315464153 | -0.75 | inactive |
| OR2W3 | SID315464153 | -0.18 | inactive |
| OR2W3 | SID315464153 | -1.05 | inactive |
| OR2W3 | SID315464153 | -0.28 | inactive |
| NIPSNAP3A | SID315455564 | -1.07 | inactive |
| NIPSNAP3A | SID315455564 | -0.22 | inactive |
| NIPSNAP3A | SID315455564 | -0.71 | inactive |
| NIPSNAP3A | SID315455564 | 1.82 | inactive |
| BLMH | SID315447553 | -0.98 | inactive |
| BLMH | SID315447553 | 2.65 | inactive |
| BLMH | SID315447553 | 3 | active |
| BLMH | SID315447553 | -0.93 | inactive |
| APLP2 | SID315447350 | -1.43 | inactive |
| APLP2 | SID315447350 | -0.67 | inactive |
| APLP2 | SID315447350 | -0.84 | inactive |
| APLP2 | SID315447350 | -1.45 | inactive |
| WDR74 | SID315457113 | 1.39 | inactive |
| WDR74 | SID315457113 | 1.8 | inactive |
| WDR74 | SID315457113 | -0.1 | inactive |
| WDR74 | SID315457113 | 3.27 | active |
| EEF2K | SID315456207 | -1.29 | inactive |
| EEF2K | SID315456207 | -0.93 | inactive |
| EEF2K | SID315456207 | -0.89 | inactive |
| EEF2K | SID315456207 | -1.14 | inactive |
| XKRYP7 | SID315464299 | 0 | inactive |
| XKRYP7 | SID315464299 | -0.25 | inactive |
| XKRYP7 | SID315464299 | -0.86 | inactive |
| XKRYP7 | SID315464299 | -0.59 | inactive |
| FEM1C | SID315458170 | 0.1 | inactive |
| FEM1C | SID315458170 | 1.11 | inactive |
| FEM1C | SID315458170 | 0.6 | inactive |
| FEM1C | SID315458170 | -0.51 | inactive |

The listing continues.
| gene | PubChem SID | TNF reporter robust z-score | call |
| --- | --- | --- | --- |
| ABCB4 | SID315450555 | 0.22 | inactive |
| ABCB4 | SID315450555 | 0.98 | inactive |
| ABCB4 | SID315450555 | 1.2 | inactive |
| ABCB4 | SID315450555 | 0.45 | inactive |
| TNPO1 | SID315449680 | -0.23 | inactive |
| TNPO1 | SID315449680 | 1.06 | inactive |
| TNPO1 | SID315449680 | 0.95 | inactive |
| TNPO1 | SID315449680 | -0.42 | inactive |
| MAPK14 | SID315448117 | 1.78 | inactive |
| MAPK14 | SID315448117 | 2.12 | inactive |
| MAPK14 | SID315448117 | 1.51 | inactive |
| MAPK14 | SID315448117 | -0.04 | inactive |
| ZNF322 | SID315459387 | – | inactive |
| ZNF322 | SID315459387 | -0.76 | inactive |
| ZNF322 | SID315459387 | -0.81 | inactive |
| ZNF322 | SID315459387 | -0.92 | inactive |
| ZNF322 | SID315459387 | -0.63 | inactive |
